Results deposited as PubChem BioAssay AID1224830 (NIAID, 2016)
The whole screen tested about 18,000 reagents; shown is a random part of them. About 2,900 of them (16%) count as active. 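Calls are made per well; low scores hint the gene aids the LPS response, high scores that it dampens it.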 Repeated entries: four replicate wells of each siRNA pool.

Purpose: 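Host factors that control LPS-induced TNF expression in human macrophages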 (primary screen)
Cells: human THP-1 monocytic leukaemia cells, TNF dual-luciferase reporter clone, PMA-differentiated to macrophage-like cells
Reagents: siRNA pool against human genes, 50 nM
Timing: LPS for 4 h, given about 3 days after siRNA transfection
Conditions: bacterial LPS (TLR4 ligand), 10 ng/ml
Measured: 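TNF firefly reporter luminescence divided by renilla, normalised to the plate median, then turned into a robust z-score for each replicate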
Reading the numbers: TNF reporter robust z-score: higher = stronger TNF reporter response to LPS
Rule for the call: 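a well is active when its z-score exceeds 2.8 or falls below -1.5; control wells carry no call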

no.	Gene	PubChem SID	TNF reporter robust z-score	Call
1	GLIPR1L1	SID315463534	-0.24	inactive
2	GLIPR1L1	SID315463534	-0.17	inactive
3	GLIPR1L1	SID315463534	0.32	inactive
4	GLIPR1L1	SID315463534	0.53	inactive
5	GLMP	SID315461156	-0.57	inactive
6	GLMP	SID315461156	-0.17	inactive
7	GLMP	SID315461156	-0.37	inactive
8	GLMP	SID315461156	-0.89	inactive
9	DHX58	SID315459218	0.18	inactive
10	DHX58	SID315459218	-0.03	inactive
11	DHX58	SID315459218	-0.01	inactive
12	DHX58	SID315459218	0.03	inactive
13	SLPI	SID315451521	1.64	inactive
14	SLPI	SID315451521	1.91	inactive
15	SLPI	SID315451521	0.48	inactive
16	SLPI	SID315451521	2.71	inactive
17	BRMS1	SID315455514	0.44	inactive
18	BRMS1	SID315455514	-0.57	inactive
19	BRMS1	SID315455514	-0.53	inactive
20	BRMS1	SID315455514	-0.05	inactive
21	OPRL1	SID315450363	0.06	inactive
22	OPRL1	SID315450363	0.29	inactive
23	OPRL1	SID315450363	0.82	inactive
24	OPRL1	SID315450363	0.08	inactive
25	LRRC19	SID315459044	-0.73	inactive
26	LRRC19	SID315459044	-0.7	inactive
27	LRRC19	SID315459044	-0.12	inactive
28	LRRC19	SID315459044	-0.53	inactive
29	MAGED1	SID315453334	-0.85	inactive
30	MAGED1	SID315453334	-1.35	inactive
31	MAGED1	SID315453334	-0.05	inactive
32	MAGED1	SID315453334	0.37	inactive
33	DOCK6	SID315458475	1.35	inactive
34	DOCK6	SID315458475	0.6	inactive
35	DOCK6	SID315458475	0.71	inactive
36	DOCK6	SID315458475	2.24	inactive
37	CSPG5	SID315454290	-1.41	inactive
38	CSPG5	SID315454290	-1.21	inactive
39	CSPG5	SID315454290	-1.97	active
40	CSPG5	SID315454290	0.16	inactive
41	FAM174A	SID315464193	2.74	inactive
42	FAM174A	SID315464193	0.6	inactive
43	FAM174A	SID315464193	-1.32	inactive
44	FAM174A	SID315464193	-0.4	inactive
45	TMEM9B	SID315458109	-0.64	inactive
46	TMEM9B	SID315458109	-0.56	inactive
47	TMEM9B	SID315458109	-1.06	inactive
48	TMEM9B	SID315458109	0.33	inactive
49	SRI	SID315451628	0.05	inactive
50	SRI	SID315451628	1.54	inactive
51	SRI	SID315451628	2.2	inactive
52	SRI	SID315451628	0.72	inactive
53	SPINK1	SID315451603	1.03	inactive
54	SPINK1	SID315451603	0.17	inactive
55	SPINK1	SID315451603	-0.3	inactive
56	SPINK1	SID315451603	0.36	inactive
57	KCNF1	SID315449609	-0.89	inactive
58	KCNF1	SID315449609	-0.52	inactive
59	KCNF1	SID315449609	-0.85	inactive
60	ZNF878	SID315465209	-0.35	inactive
61	ZNF878	SID315465209	-0.06	inactive
62	ZNF878	SID315465209	0.69	inactive
63	ZNF878	SID315465209	0.3	inactive
64	SIRT1	SID315455223	3.35	active
65	SIRT1	SID315455223	1.97	inactive
66	SIRT1	SID315455223	1.96	inactive
67	SIRT1	SID315455223	1.73	inactive
68	PRR19	SID315463761	-0.8	inactive
69	PRR19	SID315463761	1.08	inactive
70	PRR19	SID315463761	-0.16	inactive
71	PRR19	SID315463761	0.46	inactive
72	DOCK2	SID315448354	-0.34	inactive
73	DOCK2	SID315448354	0.29	inactive
74	DOCK2	SID315448354	-0.53	inactive
75	DOCK2	SID315448354	0.86	inactive
